# No constants are given. Whether binding was seen depends on the method and setting. In cells and extracts the contact can be indirect. Some entries that bind do so weakly or less than the wild type.
# Protein sequences, listed by entry. Tags and fused reporters are not part of them.
# UniProt Q15797: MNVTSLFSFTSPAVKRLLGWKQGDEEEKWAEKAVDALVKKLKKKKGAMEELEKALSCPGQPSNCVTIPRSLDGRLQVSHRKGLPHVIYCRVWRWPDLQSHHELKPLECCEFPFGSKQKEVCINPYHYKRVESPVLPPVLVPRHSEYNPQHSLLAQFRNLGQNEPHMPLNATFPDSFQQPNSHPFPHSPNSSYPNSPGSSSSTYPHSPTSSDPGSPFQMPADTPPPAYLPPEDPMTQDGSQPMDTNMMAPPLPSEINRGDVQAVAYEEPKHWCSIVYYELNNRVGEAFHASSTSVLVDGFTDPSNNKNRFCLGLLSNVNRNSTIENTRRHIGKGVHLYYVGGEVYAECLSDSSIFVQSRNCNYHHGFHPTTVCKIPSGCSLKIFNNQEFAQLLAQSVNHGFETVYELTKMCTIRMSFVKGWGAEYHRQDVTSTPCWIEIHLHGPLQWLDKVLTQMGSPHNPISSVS
# UniProt Q13485: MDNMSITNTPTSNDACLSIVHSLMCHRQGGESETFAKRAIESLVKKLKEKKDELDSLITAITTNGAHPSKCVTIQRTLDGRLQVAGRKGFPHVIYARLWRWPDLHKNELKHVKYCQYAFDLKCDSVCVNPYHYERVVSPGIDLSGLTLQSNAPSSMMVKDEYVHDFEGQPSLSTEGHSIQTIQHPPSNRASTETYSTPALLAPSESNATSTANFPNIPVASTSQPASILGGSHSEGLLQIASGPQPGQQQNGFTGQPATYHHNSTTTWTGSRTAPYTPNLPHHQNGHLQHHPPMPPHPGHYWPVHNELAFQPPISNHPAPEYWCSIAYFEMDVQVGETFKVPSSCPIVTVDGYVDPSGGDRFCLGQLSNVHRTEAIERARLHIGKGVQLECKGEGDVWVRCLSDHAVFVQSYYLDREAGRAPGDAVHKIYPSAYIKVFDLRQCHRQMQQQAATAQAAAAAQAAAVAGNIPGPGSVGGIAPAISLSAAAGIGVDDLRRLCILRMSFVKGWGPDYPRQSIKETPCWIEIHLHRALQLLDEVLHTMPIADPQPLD
# Molecular target: in vitro-translated, 35S-Met-labeled SMAD1 (UniProt Q15797)
# Experiment: pull-down; same experiment as a2, lane with in vitro-translated Smad1 + Smad4 together on His-ZZ-Mab21l2 beads: Smad4 retained through Smad1
substance,measurement,value
"in vitro-translated, 35S-Met-labeled SMAD4 (from UniProt Q13485 1-552)",binding,binds

# From article PMC545073
